From US20260215420A1 (Solasta Bio Limited, priority 2022, published 2026)

Test: general procedure: Fmoc solid-phase peptide synthesis; Tentagel S RAM (0.22 mmol/g); Rink Amide ProTide LL (0.18 mmol/g) for SB-P-101; DIC/Oxyma
Conditions: whole synthesis
[1] = scale of the general procedure 0.1 mmol, 0.2 mmol or 0.5 mmol

H-KVKFSAWG-NH2
final purity (method not given) (scale 0.1 mmol): Purity=91% | isolated yield (scale 0.1 mmol): Yield=42%

H-RQKTVFSSWG-NH2
final purity (method not given) [1]: Purity=90% | isolated yield [1]: Yield=41%

H-PAFSSWG-NH2
final purity (method not given) [1]: Purity=91% | isolated yield [1]: Yield=41%
